# Experimental data as given in PubChem BioAssay AID504467 (National Center for Advancing Translational Sciences (NCATS), 2011).
# Among all 330,000 compounds or so, about 7,700 (2.3%) were called active. The shares of active, inactive and inconclusive entries below differ from those in the screen. The call rests on the fitted dose curve; in most records, active means well fitted inhibition curve with a large enough effect; inconclusive means small, poorly fitted or top-dose-only effect, or effect the other way; inactive means flat fitted curve, though single readings scatter. Potencies beside an inconclusive call are fits to weak or partial responses and may not hold up.
# Assay: qHTS screen for small molecules that inhibit ELG1-dependent DNA repair in human embryonic kidney (HEK293T) cells expressing luciferase-tagged ELG1; further: nearly all actives have a fitted effect of over 55% in size
# Details: HEK293T ELG1-luciferase reporter, luminescence, 16 h, DNA damage induced by 5-fluorouridine; series mostly up to 46.1 µM
# Summary of the method: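 Overnight (16 hr) co-exposure of 2,000 cells/well to 5-fluorouridine and compound at 37 °C preceded detection. Luciferase was quantified via ONE-Glo luminescence; loss of signal denotes inhibition.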
# Potency means the concentration at half of the fitted maximal effect.
row,Compound,Potency
1,O=C(O)CCC(=O)Nc1ccccc1C(=O)Nc1ccccc1,"inconclusive: 16.4 µM [activator, partial curve, poor fit]"
2,COc1cc(-c2n[nH]c(=S)n2-c2cc(C(F)(F)F)ccc2Cl)cc(OC)c1OC,"inconclusive: 18.4 µM [activator, partial curve]"
3,O=C(c1ccccc1)N1CCOC12CCN(c1ncc(C(F)(F)F)cc1Cl)CC2,"inconclusive: 20.6 µM [inhibitor, single point]"
4,CN(C)S(=O)(=O)c1cccc(NC(=S)N2CCc3ccccc32)c1,"inconclusive: 20.6 µM [inhibitor, single point]"
5,COCCn1c(C)cc(C(=O)CSc2n[nH]c(N)n2)c1C,"inconclusive: 29.1 µM [activator, single point]"
6,CN(NC1OC(=O)c2ccccc21)c1ccc(Cl)cc1[N+](=O)[O-] (stereo not drawn),"inconclusive: 16.4 µM [activator, partial curve]"
7,CC1=CSC2=NC(=O)/C(=C\c3cccn3-c3ccc([N+](=O)[O-])cc3)C(=N)N12,inactive
8,CCc1cccc2c(C(=O)CN3C(=O)NC4(CCCCC4)C3=O)c[nH]c12,"inconclusive: 5.8 µM [activator, partial curve]"
9,COc1ccc(Cl)cc1NC(=O)CCn1cnc2ccccc2c1=O,"inconclusive: 20.6 µM [inhibitor, single point]"
10,C=CCNC(=O)Nc1ccc(OCC)cc1,"inconclusive: 7.31 µM [activator, partial curve, poor fit]"
11,CCCNC(=S)Nc1ccc(Nc2ccccc2)cc1,"inconclusive: 16.4 µM [activator, single point]"
12,Cc1nc(N2CCCCC2)sc1C(=O)c1ccc(Cl)c([N+](=O)[O-])c1,active: 18.3 µM
13,CC(=O)c1ccc(NC(=O)CCNC(=O)c2ccccc2Cl)cc1,inactive
14,CC1=C(C(=O)OC(C)C)C(c2ccc(C)o2)C(C(=O)OC(C)C)=C(C)N1,active: 18.3 µM
15,O=C(Cn1c(=O)n(-c2ccccc2)c(=O)c2oc3ccccc3c21)Nc1ccccc1,"inconclusive: 29.1 µM [inhibitor, single point]"
16,COc1ccc(NC(=O)C2CCCN(S(=O)(=O)c3ccc4c(c3)CCCN4C(C)=O)C2)cc1 (stereo not drawn),"inconclusive: 18.3 µM [inhibitor, partial curve, poor fit]"
17,O=C(NCc1ccccc1Cl)c1ccc2c(c1)SC1=NS(=O)(=O)CCN12,inactive
18,O=C1C2C3C=CC(C4CC34)C2C(=O)N1c1ccc2c(c1)OCO2 (stereo not drawn),inactive
19,Cc1cc(C(=O)O)ccc1-c1ccc(/C=C2\NC(=O)N(Cc3ccc(F)cc3)C2=O)o1,inactive
20,CCOc1ccc(C(C(=O)NCC2CCCO2)N(CCc2cccc(C)c2)C(=O)c2snc(C(N)=O)c2N)cc1 (stereo not drawn),"inconclusive: 25.9 µM [inhibitor, single point]"
21,CC(C)C1Nc2ccc(C(=O)NCCCN3CCOCC3)cc2NC1=O (stereo not drawn),inactive
22,COc1cc(C(C)=O)ccc1OCC(=O)Nc1ccccc1N1CCCC1,"inconclusive: 29.1 µM [inhibitor, single point]"
23,Cc1ccc(-c2cc(C(=O)Nc3cnn(C(C)C)c3)no2)cc1,"inconclusive: 20.6 µM [activator, single point]"

# Entries shown so far with two or more sulfur atoms (2):
row,Compound,Potency
4,CN(C)S(=O)(=O)c1cccc(NC(=S)N2CCc3ccccc32)c1,"inconclusive: 20.6 µM [inhibitor, single point]"
17,O=C(NCc1ccccc1Cl)c1ccc2c(c1)SC1=NS(=O)(=O)CCN12,inactive

# Later entries.

row,Compound,Potency
1,COc1ccc(C(=O)n2nc(C)cc2Nc2ccccc2)cc1,"inconclusive: 18.4 µM [activator, partial curve]"
2,CCCCN(C)CCCNC(=O)c1cc(Nc2ccc(OC)c(OC)c2)nc2ccccc12,inactive
3,Cn1c(-c2ccc(C=O)s2)nc2ccccc21,"inconclusive: 16.4 µM [activator, partial curve]"
4,CCCOc1ccc(/C=N/NC(=O)c2ccc3c(c2)OCO3)c(OCCC)c1,inactive
5,CCCC(=O)Nc1cccc(NC(=O)c2cccc([N+](=O)[O-])c2C)c1,"inconclusive: 11.6 µM [inhibitor, partial curve, poor fit]"
6,O=C(C1CCN(C2CCN(Cc3ccc4cc(F)ccc4n3)CC2)CC1)N1CCCC1,active: 13 µM
7,O=C(C1COc2ccccc2O1)N1CCCCC1 (stereo not drawn),"inconclusive: 23.1 µM [activator, partial curve, poor fit]"
8,CCCC(=NCCc1c(C)[nH]c2ccccc12)C1=C(O)CC(c2ccccc2)CC1=O (stereo not drawn),"inconclusive: 13 µM [inhibitor, partial curve]"
9,CC(=O)Nc1ccc(NC(=O)C(C)Oc2ccc(C)nc2[N+](=O)[O-])cc1 (stereo not drawn),inactive
10,Cc1ccccc1C(=O)NNC(=O)c1ccc(Br)cc1,"inconclusive: 4.61 µM [activator, partial curve]"
11,CC(=O)N1c2ccccc2C(=O)C1N(C)c1ccc(C)cc1 (stereo not drawn),inactive
12,Cc1[nH]n(-c2ccccc2)c(=O)c1C=NCc1ccncc1,"inconclusive: 25.9 µM [activator, partial curve, poor fit]"
13,COC(=O)c1ccc(Nc2cc(C)nc3nc(C)nn23)cc1,"inconclusive: 20.6 µM [activator, single point]"
14,CC1CCc2c(nc3nc[nH]n3c2=O)C1 (stereo not drawn),"inconclusive: 20.6 µM [activator, partial curve, poor fit]"
15,Cc1cc(/C=C2\Sc3ccccc3N2C)cc(C)[n+]1CC1CCCO1 (stereo not drawn),"inconclusive: 0.73 µM [inhibitor, partial curve, poor fit]"
16,COc1cc(/C=N/N2CCN(C3c4ccccc4-c4ccccc43)CC2)cc(OC)c1OC,"inconclusive: 29.1 µM [inhibitor, partial curve, poor fit]"
17,COc1ccc2[nH]c3c(c2c1)CCN1C(=O)C(CC(=O)NCc2ccco2)C[C@H](C(=O)N2CCCCC2)[C@@]31C (stereo partly drawn),inactive
18,CCCc1ccc(-c2csc(NC(=O)Cc3cccs3)n2)cc1,"inconclusive: 2.06 µM [inhibitor, partial curve, poor fit]"
19,C=C1C(C(=O)N2CCN(C)CC2)C1C(=O)N1CCN(C)CC1 (stereo not drawn),"inconclusive: 1.16 µM [inhibitor, single point]"
20,O=C(Nc1ccc(F)cc1F)c1csc(-c2ccccc2)n1,"inconclusive: 18.3 µM [activator, single point]"
21,O=c1ccc(-c2ccc([N+](=O)[O-])cc2)nn1-c1ccccc1,inactive
22,CC(C)(C)c1ccc(C(=O)O/N=C(\N)c2ccccc2)cc1,"inconclusive: 3.26 µM [activator, partial curve]"
23,CCOc1ccc(S(=O)(=O)NCCC(=O)NC2CCC(C)CC2)cc1 (stereo not drawn),inactive

row,Compound,Potency
1,CC1CCCCN1c1nc(-c2ccncc2)nc2ccccc12 (stereo not drawn),inactive
2,COc1ccccc1C(=O)COC(=O)c1ccc(N(C)C)cc1,"inconclusive: 11.6 µM [activator, partial curve]"
3,CCCCNC(=O)Nc1ccc(C2SCCS2)cc1,"inconclusive: 18.3 µM [activator, partial curve]"
4,CSc1ccc(C(=O)c2[nH]c(=O)[nH]c2C)cc1,"inconclusive: 3.98 µM [activator, full curve, poor fit]"
5,COc1ccccc1NC(=O)c1coc(=O)c(Br)c1,"inconclusive: 20.6 µM [activator, single point]"
6,COc1ccc(NS(=O)(=O)c2cc(C)ccc2OC)cc1OC,"inconclusive: 0.146 µM [inhibitor, full curve, poor fit]"
7,Cn1c2ccccc2c(=O)c2cc(C#Cc3ccsc3)ccc21,"inconclusive: 29.1 µM [activator, single point]"
8,CCOc1ccccc1NC(=O)Cn1ncc2ccc([N+](=O)[O-])cc21,"inconclusive: 14.6 µM [inhibitor, single point]"
9,CCCn1c(SCC(=O)Nc2ccccc2Oc2ccccc2)n[nH]c1=O,"inconclusive: 25.9 µM [inhibitor, single point]"
10,COc1ccc(CNc2nccs2)cc1OC,inactive
11,COc1ccccc1CNC(=O)c1cc(C)nn1-c1ccccc1,inactive
12,CCCC(=O)Nc1ccc(C(=O)NNC(=S)NC(=O)c2cccs2)cc1,"inconclusive: 0.92 µM [inhibitor, full curve]"
13,CC(C)(C)NC(=O)COC(=O)c1c2c(nc3ccccc13)CCC2,"inconclusive: 18.3 µM [inhibitor, single point]"
14,COC(C(=O)NNC(=O)Cc1ccc(Cl)cc1)c1ccccc1 (stereo not drawn),"inconclusive: 23.1 µM [inhibitor, single point]"
15,COc1ccc(CCn2c(N)c(C#N)c3nc4ccccc4nc32)cc1OC,active: 23.1 µM
16,Cc1ccc(C(=O)CSc2cnc3ccccc3n2)cc1C,"inconclusive: 4.11 µM [activator, full curve]"
17,Nc1ccc2c(c1)C(=O)Cc1ccccc1S2,"inconclusive: 5.8 µM [activator, full curve]"
18,Cc1ccc(-c2nnc(CSc3nnc(COc4ccccc4)n3-c3ccccc3)o2)cc1,"inconclusive: 12.6 µM [inhibitor, partial curve]"
19,COc1cccc(C(=O)OCC(=O)c2[nH]c(C)c(C(C)=O)c2C)c1,"inconclusive: 20 µM [activator, partial curve, poor fit]"
20,COc1ccc(CCNC(=O)CN2C(=O)NC(Cc3c[nH]c4ccccc34)C2=O)cc1 (stereo not drawn),"inconclusive: 6.51 µM [inhibitor, partial curve, poor fit]"
21,O=C(Nc1ccc(N2CCCC2)c(Cl)c1)c1ccc([N+](=O)[O-])o1,"inconclusive: 16.4 µM [activator, partial curve]"
22,O=C(C[C@H]1C/C=C\CC[C@@H](Cc2ccc(F)cc2)C(=O)OCCNC1=O)NCCO,"inconclusive: 18.3 µM [activator, partial curve, poor fit]"

# Pulled one by one from above:
row,Compound,Potency
13,CC(C)(C)NC(=O)COC(=O)c1c2c(nc3ccccc13)CCC2,"inconclusive: 18.3 µM [inhibitor, single point]"
7,Cn1c2ccccc2c(=O)c2cc(C#Cc3ccsc3)ccc21,"inconclusive: 29.1 µM [activator, single point]"
